Results taken from the supplement of paper PMC12823440, “Inhibitors supercharge kinase turnover through native proteolytic circuits” (Nature, 2025).
Where a name gives a salt, the structure may show the parent alone. The list shows a part of the results. The calls rarely recur for the same compound in another form.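 Kinases were expressed as nanoluciferase fusions in K562 cells and luminescence was read every 4 h between 2 and 18 h as percent of control, DMSO set to 100% and a positive control to 0%. A time point counts as decreased when the signal drops significantly (2 sigma). The hit call is the authors' own, does not follow from the count of time points alone, and its rule is not shown.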

Chains of the proteins cited; added tags and fusions are not shown. Lines headed by an entry give the natural chain unless they say otherwise; changes in a name come on top.
UniProt P07949, whole entry, looked up: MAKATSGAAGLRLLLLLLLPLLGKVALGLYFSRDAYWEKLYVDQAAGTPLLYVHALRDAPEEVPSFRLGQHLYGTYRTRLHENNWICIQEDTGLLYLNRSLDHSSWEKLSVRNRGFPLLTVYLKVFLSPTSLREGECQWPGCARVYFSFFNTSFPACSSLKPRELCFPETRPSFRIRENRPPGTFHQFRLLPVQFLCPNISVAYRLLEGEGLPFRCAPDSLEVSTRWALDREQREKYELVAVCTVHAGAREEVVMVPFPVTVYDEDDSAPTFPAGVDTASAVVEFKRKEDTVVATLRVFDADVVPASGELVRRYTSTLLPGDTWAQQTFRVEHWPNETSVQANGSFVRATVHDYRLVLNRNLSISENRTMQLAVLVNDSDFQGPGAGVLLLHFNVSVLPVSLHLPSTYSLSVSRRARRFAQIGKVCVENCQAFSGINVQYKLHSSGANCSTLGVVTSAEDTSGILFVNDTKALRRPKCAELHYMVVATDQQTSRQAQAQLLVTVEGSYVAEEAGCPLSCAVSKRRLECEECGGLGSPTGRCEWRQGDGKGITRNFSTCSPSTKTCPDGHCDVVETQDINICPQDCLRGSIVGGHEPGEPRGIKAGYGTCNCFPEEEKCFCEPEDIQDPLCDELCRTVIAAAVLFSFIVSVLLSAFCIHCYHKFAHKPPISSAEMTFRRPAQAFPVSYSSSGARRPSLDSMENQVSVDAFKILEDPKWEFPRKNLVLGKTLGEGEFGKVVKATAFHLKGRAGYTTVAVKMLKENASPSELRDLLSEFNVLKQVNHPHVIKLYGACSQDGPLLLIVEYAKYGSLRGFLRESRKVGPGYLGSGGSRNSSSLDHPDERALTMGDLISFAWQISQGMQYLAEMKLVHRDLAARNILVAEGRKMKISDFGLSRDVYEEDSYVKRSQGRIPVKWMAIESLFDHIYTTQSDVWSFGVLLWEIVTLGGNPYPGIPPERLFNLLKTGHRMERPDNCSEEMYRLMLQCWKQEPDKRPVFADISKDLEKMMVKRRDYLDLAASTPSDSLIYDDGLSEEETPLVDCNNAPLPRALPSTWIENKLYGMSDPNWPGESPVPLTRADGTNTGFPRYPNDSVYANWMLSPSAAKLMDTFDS
UniProt P07949, whole entry M918T, looked up: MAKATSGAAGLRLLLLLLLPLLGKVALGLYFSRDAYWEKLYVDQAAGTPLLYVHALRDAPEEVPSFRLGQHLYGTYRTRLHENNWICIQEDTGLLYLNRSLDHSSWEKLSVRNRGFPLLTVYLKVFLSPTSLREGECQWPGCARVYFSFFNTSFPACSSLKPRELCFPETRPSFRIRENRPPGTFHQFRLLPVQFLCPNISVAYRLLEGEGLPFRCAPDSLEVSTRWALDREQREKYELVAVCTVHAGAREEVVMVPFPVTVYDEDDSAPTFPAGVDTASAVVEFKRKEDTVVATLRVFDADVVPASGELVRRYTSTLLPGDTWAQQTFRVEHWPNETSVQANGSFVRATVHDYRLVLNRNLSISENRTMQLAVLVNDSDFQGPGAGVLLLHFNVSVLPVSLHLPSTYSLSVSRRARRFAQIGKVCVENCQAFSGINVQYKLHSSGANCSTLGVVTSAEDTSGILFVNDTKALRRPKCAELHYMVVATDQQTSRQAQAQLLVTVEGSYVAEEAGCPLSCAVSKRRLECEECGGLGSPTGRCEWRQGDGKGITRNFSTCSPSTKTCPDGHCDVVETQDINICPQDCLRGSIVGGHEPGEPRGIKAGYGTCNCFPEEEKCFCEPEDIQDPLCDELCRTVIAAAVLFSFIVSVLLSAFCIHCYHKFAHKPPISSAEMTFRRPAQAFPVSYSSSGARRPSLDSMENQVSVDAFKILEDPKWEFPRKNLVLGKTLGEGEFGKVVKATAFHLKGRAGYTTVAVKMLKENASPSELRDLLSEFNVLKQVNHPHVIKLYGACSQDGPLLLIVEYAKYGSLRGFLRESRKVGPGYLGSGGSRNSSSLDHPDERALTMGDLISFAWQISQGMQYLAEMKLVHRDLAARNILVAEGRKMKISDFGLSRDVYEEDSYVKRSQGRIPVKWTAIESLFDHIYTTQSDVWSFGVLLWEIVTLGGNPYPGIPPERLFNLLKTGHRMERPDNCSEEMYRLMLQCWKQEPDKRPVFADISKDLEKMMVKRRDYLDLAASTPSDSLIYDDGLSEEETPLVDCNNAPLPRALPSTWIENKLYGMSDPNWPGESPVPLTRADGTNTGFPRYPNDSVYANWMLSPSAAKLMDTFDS
UniProt Q13546: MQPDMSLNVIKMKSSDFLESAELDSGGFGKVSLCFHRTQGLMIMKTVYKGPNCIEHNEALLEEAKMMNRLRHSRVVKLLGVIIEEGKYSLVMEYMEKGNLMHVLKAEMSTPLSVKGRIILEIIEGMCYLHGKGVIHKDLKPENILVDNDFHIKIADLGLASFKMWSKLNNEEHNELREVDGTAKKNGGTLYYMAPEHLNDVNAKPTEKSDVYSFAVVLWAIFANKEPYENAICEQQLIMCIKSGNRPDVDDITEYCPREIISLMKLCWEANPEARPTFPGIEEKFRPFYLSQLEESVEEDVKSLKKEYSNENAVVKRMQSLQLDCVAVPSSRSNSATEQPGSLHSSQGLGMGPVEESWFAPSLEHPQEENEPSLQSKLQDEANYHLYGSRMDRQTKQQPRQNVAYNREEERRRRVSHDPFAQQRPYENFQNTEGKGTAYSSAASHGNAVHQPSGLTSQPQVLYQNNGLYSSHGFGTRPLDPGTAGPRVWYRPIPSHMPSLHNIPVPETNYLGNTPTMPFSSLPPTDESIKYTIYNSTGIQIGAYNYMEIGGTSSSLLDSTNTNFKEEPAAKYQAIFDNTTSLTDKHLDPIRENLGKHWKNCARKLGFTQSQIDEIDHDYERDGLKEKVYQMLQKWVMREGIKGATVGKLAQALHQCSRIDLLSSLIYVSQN
UniProt Q9Y6E0: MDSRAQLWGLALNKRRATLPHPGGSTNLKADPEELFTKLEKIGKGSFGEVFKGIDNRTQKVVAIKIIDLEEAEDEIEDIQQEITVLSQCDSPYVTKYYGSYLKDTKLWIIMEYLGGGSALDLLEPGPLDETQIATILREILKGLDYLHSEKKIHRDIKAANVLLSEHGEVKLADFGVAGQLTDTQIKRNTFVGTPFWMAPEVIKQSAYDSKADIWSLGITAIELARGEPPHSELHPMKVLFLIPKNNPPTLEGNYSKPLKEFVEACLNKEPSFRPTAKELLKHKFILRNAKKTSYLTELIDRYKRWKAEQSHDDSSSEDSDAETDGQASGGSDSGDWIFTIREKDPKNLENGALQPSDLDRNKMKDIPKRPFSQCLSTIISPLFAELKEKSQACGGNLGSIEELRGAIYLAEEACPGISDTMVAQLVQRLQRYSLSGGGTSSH
UniProt Q15208: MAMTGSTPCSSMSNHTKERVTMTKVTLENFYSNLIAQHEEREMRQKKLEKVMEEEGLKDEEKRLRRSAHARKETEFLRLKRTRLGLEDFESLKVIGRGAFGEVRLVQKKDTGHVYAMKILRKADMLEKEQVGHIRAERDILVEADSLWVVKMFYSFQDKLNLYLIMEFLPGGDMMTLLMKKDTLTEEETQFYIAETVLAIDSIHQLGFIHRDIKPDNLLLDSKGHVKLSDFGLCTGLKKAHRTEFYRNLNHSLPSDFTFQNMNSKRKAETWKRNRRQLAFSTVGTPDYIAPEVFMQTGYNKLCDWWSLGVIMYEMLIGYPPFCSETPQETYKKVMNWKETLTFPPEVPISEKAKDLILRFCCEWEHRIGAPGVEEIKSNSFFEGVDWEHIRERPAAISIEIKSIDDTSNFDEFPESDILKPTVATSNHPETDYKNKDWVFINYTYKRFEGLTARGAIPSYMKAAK
UniProt P42680: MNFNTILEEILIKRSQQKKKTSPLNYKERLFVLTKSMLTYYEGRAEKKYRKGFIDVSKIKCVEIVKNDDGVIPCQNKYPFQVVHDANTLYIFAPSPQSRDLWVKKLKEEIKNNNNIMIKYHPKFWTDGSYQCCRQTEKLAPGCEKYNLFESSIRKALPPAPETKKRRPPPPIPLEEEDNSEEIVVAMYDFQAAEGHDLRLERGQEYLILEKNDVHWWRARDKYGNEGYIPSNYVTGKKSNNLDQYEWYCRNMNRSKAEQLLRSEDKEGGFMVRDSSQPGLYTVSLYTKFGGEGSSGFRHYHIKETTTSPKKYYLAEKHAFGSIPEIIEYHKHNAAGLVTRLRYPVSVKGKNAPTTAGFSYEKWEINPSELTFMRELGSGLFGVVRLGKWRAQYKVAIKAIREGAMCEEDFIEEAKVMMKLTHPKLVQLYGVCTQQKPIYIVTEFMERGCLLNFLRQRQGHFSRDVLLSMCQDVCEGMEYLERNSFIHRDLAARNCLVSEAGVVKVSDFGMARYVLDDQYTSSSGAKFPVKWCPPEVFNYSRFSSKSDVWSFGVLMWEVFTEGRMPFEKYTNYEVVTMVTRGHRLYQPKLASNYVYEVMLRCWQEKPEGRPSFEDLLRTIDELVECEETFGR
UniProt Q6PHR2: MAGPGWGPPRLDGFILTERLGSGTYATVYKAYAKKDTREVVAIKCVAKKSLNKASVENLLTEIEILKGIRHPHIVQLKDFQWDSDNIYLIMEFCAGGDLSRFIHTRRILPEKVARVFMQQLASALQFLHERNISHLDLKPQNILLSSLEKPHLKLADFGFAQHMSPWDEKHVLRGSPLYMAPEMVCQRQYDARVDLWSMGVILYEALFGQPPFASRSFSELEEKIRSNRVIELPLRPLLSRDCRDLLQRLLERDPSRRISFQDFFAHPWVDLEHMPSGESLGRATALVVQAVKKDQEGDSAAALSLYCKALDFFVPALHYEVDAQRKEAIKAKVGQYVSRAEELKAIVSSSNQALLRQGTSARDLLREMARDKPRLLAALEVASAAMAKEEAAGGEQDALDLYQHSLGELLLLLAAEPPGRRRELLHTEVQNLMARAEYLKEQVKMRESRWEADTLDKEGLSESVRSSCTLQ
UniProt P07947, whole entry, looked up: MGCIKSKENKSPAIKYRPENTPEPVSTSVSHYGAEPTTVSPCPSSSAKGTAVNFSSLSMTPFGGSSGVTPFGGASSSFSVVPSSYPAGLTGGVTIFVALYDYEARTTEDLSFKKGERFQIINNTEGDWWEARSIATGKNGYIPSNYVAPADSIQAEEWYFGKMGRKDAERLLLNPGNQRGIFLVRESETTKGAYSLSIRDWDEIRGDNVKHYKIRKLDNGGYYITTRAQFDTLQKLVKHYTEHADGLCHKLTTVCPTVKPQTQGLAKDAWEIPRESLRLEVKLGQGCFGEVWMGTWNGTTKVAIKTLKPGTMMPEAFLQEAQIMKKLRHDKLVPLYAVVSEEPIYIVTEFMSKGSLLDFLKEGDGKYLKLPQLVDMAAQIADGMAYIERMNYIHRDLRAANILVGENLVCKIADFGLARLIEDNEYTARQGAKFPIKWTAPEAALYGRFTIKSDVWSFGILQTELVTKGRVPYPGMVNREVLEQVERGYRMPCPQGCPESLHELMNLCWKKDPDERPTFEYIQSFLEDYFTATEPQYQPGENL
UniProt P00519, whole entry: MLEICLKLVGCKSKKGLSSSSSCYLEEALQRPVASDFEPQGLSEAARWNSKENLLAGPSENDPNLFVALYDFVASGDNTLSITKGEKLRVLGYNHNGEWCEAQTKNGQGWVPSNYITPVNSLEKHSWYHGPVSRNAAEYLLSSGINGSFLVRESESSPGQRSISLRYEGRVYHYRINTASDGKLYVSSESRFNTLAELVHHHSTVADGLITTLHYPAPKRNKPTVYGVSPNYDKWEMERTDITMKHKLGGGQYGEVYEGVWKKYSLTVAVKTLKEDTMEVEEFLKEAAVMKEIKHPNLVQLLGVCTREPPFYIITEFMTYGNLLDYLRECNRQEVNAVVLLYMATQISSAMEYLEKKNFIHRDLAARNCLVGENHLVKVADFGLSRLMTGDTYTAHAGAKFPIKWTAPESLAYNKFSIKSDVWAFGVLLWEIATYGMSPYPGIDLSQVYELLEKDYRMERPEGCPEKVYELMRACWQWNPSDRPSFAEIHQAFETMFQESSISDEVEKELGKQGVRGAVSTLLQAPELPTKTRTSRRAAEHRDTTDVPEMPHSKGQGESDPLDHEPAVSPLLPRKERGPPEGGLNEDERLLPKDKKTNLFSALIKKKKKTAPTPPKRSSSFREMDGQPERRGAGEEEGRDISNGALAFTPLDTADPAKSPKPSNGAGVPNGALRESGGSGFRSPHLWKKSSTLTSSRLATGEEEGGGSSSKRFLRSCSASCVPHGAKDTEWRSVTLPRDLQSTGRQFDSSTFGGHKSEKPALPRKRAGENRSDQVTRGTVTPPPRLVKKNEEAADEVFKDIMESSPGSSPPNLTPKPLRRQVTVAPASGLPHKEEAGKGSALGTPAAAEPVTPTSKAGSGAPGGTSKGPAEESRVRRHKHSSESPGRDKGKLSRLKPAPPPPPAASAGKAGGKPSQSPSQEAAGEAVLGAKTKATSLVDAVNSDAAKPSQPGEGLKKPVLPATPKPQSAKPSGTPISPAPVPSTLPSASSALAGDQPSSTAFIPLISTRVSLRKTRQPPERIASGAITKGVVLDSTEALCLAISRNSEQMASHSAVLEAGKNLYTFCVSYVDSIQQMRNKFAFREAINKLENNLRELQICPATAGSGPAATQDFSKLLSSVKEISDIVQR

Experiments:
Conditions in all cases: K562; 2-18 h
RET = RET (UniProt P07949); assay: kinase-Nluc reporter destabilization hit call (1 = scored as downregulated) (binary); higher = compound decreases kinase abundance
[1] = target: RET_M918T (clone: RET_mut) (UniProt P07949); assay: as above
RIOK1 = RIOK1 (UniProt Q9BRS2); assay: as above
RIPK1 = RIPK1 (UniProt Q13546); assay: as above
RIPK2 = RIPK2 (UniProt O43353); assay: as above
ROR2 = ROR2 (UniProt Q01974); assay: as above
RPS6KA1 = RPS6KA1 (UniProt Q15418); assay: as above
SPHK1 = SPHK1 (UniProt Q9NYA1); assay: as above
SRC = SRC (UniProt P12931); assay: as above
STK24 = STK24 (UniProt Q9Y6E0); assay: as above
STK38 = STK38 (UniProt Q15208); assay: as above
SYK = SYK (UniProt P43405); assay: as above
TEC = TEC (UniProt P42680); assay: as above
TYK2 = TYK2 (UniProt P29597); assay: as above
ULK3 = ULK3 (UniProt Q6PHR2); assay: as above
YES1 = YES1 (UniProt P07947); assay: as above
ZAK = ZAK (UniProt Q9NYL2); assay: as above
ZAP70 = ZAP70 (UniProt P43403); assay: as above
ABL1 = ABL1 (UniProt P00519); assay: number of time points (of 5) at which kinase-Nluc abundance scored as decreased, DMSO-normalised (count); higher = more persistent destabilization
AKT1 = AKT1 (UniProt P31749); assay: as above

Cc1cc(N2CCOCC2)ccc1Nc1nc(NC2CCCCC2)c2[nH]cnc2n1 (10 µM)
inactive: kinase-Nluc reporter destabilization hit call (RET) 0 | kinase-Nluc reporter destabilization hit call [1] 0 | kinase-Nluc reporter destabilization hit call (RIOK1) 0 | kinase-Nluc reporter destabilization hit call (RIPK1) 0 | kinase-Nluc reporter destabilization hit call (RIPK2) 0 | kinase-Nluc reporter destabilization hit call (ROR2) 0 | kinase-Nluc reporter destabilization hit call (RPS6KA1) 0 | kinase-Nluc reporter destabilization hit call (SPHK1) 0 | kinase-Nluc reporter destabilization hit call (SRC) 0 | kinase-Nluc reporter destabilization hit call (STK24) 0 | kinase-Nluc reporter destabilization hit call (STK38) 0 | kinase-Nluc reporter destabilization hit call (SYK) 0 | kinase-Nluc reporter destabilization hit call (TEC) 0 | kinase-Nluc reporter destabilization hit call (TYK2) 0 | kinase-Nluc reporter destabilization hit call (ULK3) 0 | kinase-Nluc reporter destabilization hit call (YES1) 0 | kinase-Nluc reporter destabilization hit call (ZAK) 0 | kinase-Nluc reporter destabilization hit call (ZAP70) 0
0: number of time points (ABL1) | number of time points (AKT1)

Cn1cc(-c2nc(N[C@@H]3CCCC[C@@H]3N)c(F)c3c2C(=O)NC3)cn1 [TAK-659 (hydrochloride)] (2 µM)
0: number of time points (ABL1) | number of time points (AKT1)
inactive: kinase-Nluc reporter destabilization hit call (RET) 0 | kinase-Nluc reporter destabilization hit call [1] 0 | kinase-Nluc reporter destabilization hit call (RIOK1) 0 | kinase-Nluc reporter destabilization hit call (RIPK1) 0 | kinase-Nluc reporter destabilization hit call (RIPK2) 0 | kinase-Nluc reporter destabilization hit call (ROR2) 0 | kinase-Nluc reporter destabilization hit call (RPS6KA1) 0 | kinase-Nluc reporter destabilization hit call (SPHK1) 0 | kinase-Nluc reporter destabilization hit call (SRC) 0 | kinase-Nluc reporter destabilization hit call (STK24) 0 | kinase-Nluc reporter destabilization hit call (STK38) 0 | kinase-Nluc reporter destabilization hit call (TEC) 0 | kinase-Nluc reporter destabilization hit call (TYK2) 0 | kinase-Nluc reporter destabilization hit call (ULK3) 0 | kinase-Nluc reporter destabilization hit call (YES1) 0 | kinase-Nluc reporter destabilization hit call (ZAK) 0 | kinase-Nluc reporter destabilization hit call (ZAP70) 0

CCc1cc(Nc2nccc(-c3c(-c4ccc(OC)c(C(=O)Nc5c(F)cccc5F)c4)nc4ccccn34)n2)c(OC)cc1N1CCC(N2CCN(S(C)(=O)=O)CC2)CC1 (2.5 µM)
inactive: kinase-Nluc reporter destabilization hit call (RET) 0 | kinase-Nluc reporter destabilization hit call [1] 0 | kinase-Nluc reporter destabilization hit call (RIOK1) 0 | kinase-Nluc reporter destabilization hit call (RIPK1) 0 | kinase-Nluc reporter destabilization hit call (RIPK2) 0 | kinase-Nluc reporter destabilization hit call (ROR2) 0 | kinase-Nluc reporter destabilization hit call (RPS6KA1) 0 | kinase-Nluc reporter destabilization hit call (SPHK1) 0 | kinase-Nluc reporter destabilization hit call (SRC) 0 | kinase-Nluc reporter destabilization hit call (STK24) 0 | kinase-Nluc reporter destabilization hit call (STK38) 0 | kinase-Nluc reporter destabilization hit call (SYK) 0 | kinase-Nluc reporter destabilization hit call (TEC) 0 | kinase-Nluc reporter destabilization hit call (TYK2) 0 | kinase-Nluc reporter destabilization hit call (ULK3) 0 | kinase-Nluc reporter destabilization hit call (YES1) 0 | kinase-Nluc reporter destabilization hit call (ZAK) 0 | kinase-Nluc reporter destabilization hit call (ZAP70) 0
0: number of time points (ABL1) | number of time points (AKT1)

N#Cc1cc(N2CCC(C(=O)N3N=CC[C@H]3c3cc(F)cc(F)c3)CC2)ncn1 (10 µM)
inactive: kinase-Nluc reporter destabilization hit call (RET) 0 | kinase-Nluc reporter destabilization hit call [1] 0 | kinase-Nluc reporter destabilization hit call (RIOK1) 0 | kinase-Nluc reporter destabilization hit call (RIPK2) 0 | kinase-Nluc reporter destabilization hit call (ROR2) 0 | kinase-Nluc reporter destabilization hit call (RPS6KA1) 0 | kinase-Nluc reporter destabilization hit call (SPHK1) 0 | kinase-Nluc reporter destabilization hit call (SRC) 0 | kinase-Nluc reporter destabilization hit call (STK24) 0 | kinase-Nluc reporter destabilization hit call (STK38) 0 | kinase-Nluc reporter destabilization hit call (SYK) 0 | kinase-Nluc reporter destabilization hit call (TEC) 0 | kinase-Nluc reporter destabilization hit call (TYK2) 0 | kinase-Nluc reporter destabilization hit call (ULK3) 0 | kinase-Nluc reporter destabilization hit call (YES1) 0 | kinase-Nluc reporter destabilization hit call (ZAK) 0 | kinase-Nluc reporter destabilization hit call (ZAP70) 0
0: number of time points (ABL1) | number of time points (AKT1)

CC(=O)O[C@@H]1[C@@H](OC(C)=O)[C@@H](O)[C@H](Oc2c(-c3ccc(O)cc3)oc3cc(O)cc(O)c3c2=O)O[C@H]1C (10 µM)
inactive: kinase-Nluc reporter destabilization hit call (RET) 0 | kinase-Nluc reporter destabilization hit call [1] 0 | kinase-Nluc reporter destabilization hit call (RIOK1) 0 | kinase-Nluc reporter destabilization hit call (RIPK1) 0 | kinase-Nluc reporter destabilization hit call (RIPK2) 0 | kinase-Nluc reporter destabilization hit call (ROR2) 0 | kinase-Nluc reporter destabilization hit call (RPS6KA1) 0 | kinase-Nluc reporter destabilization hit call (SPHK1) 0 | kinase-Nluc reporter destabilization hit call (SRC) 0 | kinase-Nluc reporter destabilization hit call (STK24) 0 | kinase-Nluc reporter destabilization hit call (STK38) 0 | kinase-Nluc reporter destabilization hit call (SYK) 0 | kinase-Nluc reporter destabilization hit call (TEC) 0 | kinase-Nluc reporter destabilization hit call (TYK2) 0 | kinase-Nluc reporter destabilization hit call (ULK3) 0 | kinase-Nluc reporter destabilization hit call (YES1) 0 | kinase-Nluc reporter destabilization hit call (ZAK) 0 | kinase-Nluc reporter destabilization hit call (ZAP70) 0
0: number of time points (ABL1) | number of time points (AKT1)

COc1cc(Nc2ccnc3ccc(Br)cc23)cc(OC)c1OC (2.5 µM)
2: number of time points (ABL1)
0: number of time points (AKT1)
inactive: kinase-Nluc reporter destabilization hit call (RET) 0 | kinase-Nluc reporter destabilization hit call [1] 0 | kinase-Nluc reporter destabilization hit call (RIOK1) 0 | kinase-Nluc reporter destabilization hit call (RIPK1) 0 | kinase-Nluc reporter destabilization hit call (RIPK2) 0 | kinase-Nluc reporter destabilization hit call (ROR2) 0 | kinase-Nluc reporter destabilization hit call (RPS6KA1) 0 | kinase-Nluc reporter destabilization hit call (SPHK1) 0 | kinase-Nluc reporter destabilization hit call (SRC) 0 | kinase-Nluc reporter destabilization hit call (STK24) 0 | kinase-Nluc reporter destabilization hit call (STK38) 0 | kinase-Nluc reporter destabilization hit call (SYK) 0 | kinase-Nluc reporter destabilization hit call (TEC) 0 | kinase-Nluc reporter destabilization hit call (TYK2) 0 | kinase-Nluc reporter destabilization hit call (ULK3) 0 | kinase-Nluc reporter destabilization hit call (YES1) 0 | kinase-Nluc reporter destabilization hit call (ZAK) 0 | kinase-Nluc reporter destabilization hit call (ZAP70) 0

CC/C(=C(\c1ccccc1)c1ccc(OCCNC)cc1)c1ccccc1 [N-Desmethyltamoxifen (hydrochloride)] (2.5 µM)
inactive: kinase-Nluc reporter destabilization hit call (RET) 0 | kinase-Nluc reporter destabilization hit call [1] 0 | kinase-Nluc reporter destabilization hit call (RIOK1) 0 | kinase-Nluc reporter destabilization hit call (RIPK1) 0 | kinase-Nluc reporter destabilization hit call (RIPK2) 0 | kinase-Nluc reporter destabilization hit call (ROR2) 0 | kinase-Nluc reporter destabilization hit call (RPS6KA1) 0 | kinase-Nluc reporter destabilization hit call (SPHK1) 0 | kinase-Nluc reporter destabilization hit call (SRC) 0 | kinase-Nluc reporter destabilization hit call (STK24) 0 | kinase-Nluc reporter destabilization hit call (STK38) 0 | kinase-Nluc reporter destabilization hit call (SYK) 0 | kinase-Nluc reporter destabilization hit call (TEC) 0 | kinase-Nluc reporter destabilization hit call (TYK2) 0 | kinase-Nluc reporter destabilization hit call (ULK3) 0 | kinase-Nluc reporter destabilization hit call (YES1) 0 | kinase-Nluc reporter destabilization hit call (ZAK) 0 | kinase-Nluc reporter destabilization hit call (ZAP70) 0
0: number of time points (ABL1) | number of time points (AKT1)

Cc1nc(Nc2cnn(C3CCNCC3)c2)nc2c1N(C)C(=O)c1cc3ccccc3cc1N2C (2.5 µM)
inactive: kinase-Nluc reporter destabilization hit call (RET) 0 | kinase-Nluc reporter destabilization hit call [1] 0 | kinase-Nluc reporter destabilization hit call (RIOK1) 0 | kinase-Nluc reporter destabilization hit call (RIPK1) 0 | kinase-Nluc reporter destabilization hit call (RIPK2) 0 | kinase-Nluc reporter destabilization hit call (ROR2) 0 | kinase-Nluc reporter destabilization hit call (RPS6KA1) 0 | kinase-Nluc reporter destabilization hit call (SPHK1) 0 | kinase-Nluc reporter destabilization hit call (SRC) 0 | kinase-Nluc reporter destabilization hit call (STK24) 0 | kinase-Nluc reporter destabilization hit call (STK38) 0 | kinase-Nluc reporter destabilization hit call (SYK) 0 | kinase-Nluc reporter destabilization hit call (TEC) 0 | kinase-Nluc reporter destabilization hit call (TYK2) 0 | kinase-Nluc reporter destabilization hit call (ULK3) 0 | kinase-Nluc reporter destabilization hit call (YES1) 0 | kinase-Nluc reporter destabilization hit call (ZAK) 0 | kinase-Nluc reporter destabilization hit call (ZAP70) 0
0: number of time points (ABL1) | number of time points (AKT1)

2 compounds picked at random from the list so far, as already listed:
CC(=O)O[C@@H]1[C@@H](OC(C)=O)[C@@H](O)[C@H](Oc2c(-c3ccc(O)cc3)oc3cc(O)cc(O)c3c2=O)O[C@H]1C (10 µM)
inactive: kinase-Nluc reporter destabilization hit call (RET) 0 | kinase-Nluc reporter destabilization hit call [1] 0 | kinase-Nluc reporter destabilization hit call (RIOK1) 0 | kinase-Nluc reporter destabilization hit call (RIPK1) 0 | kinase-Nluc reporter destabilization hit call (RIPK2) 0 | kinase-Nluc reporter destabilization hit call (ROR2) 0 | kinase-Nluc reporter destabilization hit call (RPS6KA1) 0 | kinase-Nluc reporter destabilization hit call (SPHK1) 0 | kinase-Nluc reporter destabilization hit call (SRC) 0 | kinase-Nluc reporter destabilization hit call (STK24) 0 | kinase-Nluc reporter destabilization hit call (STK38) 0 | kinase-Nluc reporter destabilization hit call (SYK) 0 | kinase-Nluc reporter destabilization hit call (TEC) 0 | kinase-Nluc reporter destabilization hit call (TYK2) 0 | kinase-Nluc reporter destabilization hit call (ULK3) 0 | kinase-Nluc reporter destabilization hit call (YES1) 0 | kinase-Nluc reporter destabilization hit call (ZAK) 0 | kinase-Nluc reporter destabilization hit call (ZAP70) 0
0: number of time points (ABL1) | number of time points (AKT1)

COc1cc(Nc2ccnc3ccc(Br)cc23)cc(OC)c1OC (2.5 µM)
2: number of time points (ABL1)
0: number of time points (AKT1)
inactive: kinase-Nluc reporter destabilization hit call (RET) 0 | kinase-Nluc reporter destabilization hit call [1] 0 | kinase-Nluc reporter destabilization hit call (RIOK1) 0 | kinase-Nluc reporter destabilization hit call (RIPK1) 0 | kinase-Nluc reporter destabilization hit call (RIPK2) 0 | kinase-Nluc reporter destabilization hit call (ROR2) 0 | kinase-Nluc reporter destabilization hit call (RPS6KA1) 0 | kinase-Nluc reporter destabilization hit call (SPHK1) 0 | kinase-Nluc reporter destabilization hit call (SRC) 0 | kinase-Nluc reporter destabilization hit call (STK24) 0 | kinase-Nluc reporter destabilization hit call (STK38) 0 | kinase-Nluc reporter destabilization hit call (SYK) 0 | kinase-Nluc reporter destabilization hit call (TEC) 0 | kinase-Nluc reporter destabilization hit call (TYK2) 0 | kinase-Nluc reporter destabilization hit call (ULK3) 0 | kinase-Nluc reporter destabilization hit call (YES1) 0 | kinase-Nluc reporter destabilization hit call (ZAK) 0 | kinase-Nluc reporter destabilization hit call (ZAP70) 0
